# The list shows only some results of the screen, not a fair sample: it gathers tests that were run many times, whatever their T/C, doses with no T/C, and many T/C values between a quarter and a half above the control. Further doses and runs are listed elsewhere. T/C is the treated group as % of the vehicle group. Some entries give survivors of the animals treated and no T/C: the source files T/C as zero there, which appears to mark a toxic dose or a test without result, not a measured value. Some doses without a T/C left all or most animals alive at the check, yet need not have been tolerated: survival well below the control is almost never listed, so the zero probably covers shortened survival too. For part of these data: Survivors were counted at the toxicity check, usually on the fifth day, unless a day is given; later deaths do not show. Schedule codes are those of the source, read here as Q, the interval in days (D) or hours (H), X, the number of doses. Some schedules carry Z or #; the key to these is not given. For survival time, the PubChem record calls one and a half times the control and up active, and a quarter to a half above the control has no call in these data; cut-offs in other NCI protocols can differ. Some doses were run more than once; the results are listed from low to high. Some T/C values are followed by the survivors on the day toxicity was checked, most often the fifth; where none is given, no animal had died by that day. Counts like (3×) say how often a value occurs here.
# Legend:
# [1] = tested on: BDF1 mice, L1210 leukemia sc; assay: NCI In Vivo Anticancer Drug Screen. Data for tumor model L1210 Leukemia (subcutaneous) in B6D2F1 (BDF1) mice; conditions: T/C endpoint: median survival time, higher T/C = longer survival
# Method in brief: (§1)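 Read-out: T/C ratio, i.e. survival or tumor size in treated mice over that in vehicle-treated controls, from mice bearing transplantable tumors.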
# [2] = tested on: BDF1 mice, L1210 leukemia sc, survival T/C; assay: as above; conditions: T/C endpoint: median survival time, higher T/C = longer survival
# Method in brief: as §1
# [3] = dose: 3.0 mg/kg/injection, schedule: Q01DX Z (sc), vehicle: saline
# [4] = dose: 8.4 mg/kg/injection, schedule: Q01DX Z (sc), vehicle: saline
# [5] = dose: 14.0 mg/kg/injection, schedule: Q01DX Z (sc), vehicle: saline
# [6] = dose: 23.0 mg/kg/injection, schedule: Q01DX Z (sc), vehicle: saline
# [7] = dose: 65.0 mg/kg/injection, schedule: Q01DX Z (sc), vehicle: saline
# [8] = dose: 180.0 mg/kg/injection, schedule: Q## X Z (sc), vehicle: saline
# [9] = dose: 300.0 mg/kg/injection, schedule: Q01DX001 (sc), vehicle: saline
# [10] = dose: 5.0 mg/kg/injection, schedule: Q01DX Z (sc), vehicle: saline
# [11] = dose: 39.0 mg/kg/injection, schedule: Q01DX Z (sc), vehicle: saline
smiles,measurement,setting,value
CCCCCCOP(=O)(N1CC1)N1CC1,T/C,[1]; [3],128 and 140 % of control
same,T/C,[1]; [4],140 % of control
same,T/C,[1]; [5],140 % of control
same,T/C,"[1]; dose: 14.0 mg/kg/injection, schedule: Q## X Z (sc), vehicle: saline",130 % of control
same,T/C,[1]; [6],136 % of control
same,T/C,[1]; [7],140 % of control
same,T/C,[1]; [8],130 % of control
same,T/C,[1]; [9],130 % of control
same,T/C,"[2]; dose: 1.8 mg/kg/injection, schedule: Q01DX Z (sc), vehicle: saline","110, 112, 115 [9 of 10 alive], 120 % of control"
same,T/C,[2]; [3],150 [8 of 10 alive] and 160 % of control
same,T/C,[2]; [10],"164, 165, 175, 210 % of control"
same,T/C,[2]; [4],"150, 176, 180, 195 % of control"
same,T/C,[2]; [5],"160, 160 [8 of 10 alive], 180 % of control (2×)"
same,T/C,[2]; [6],"150 (2×), 155 [8 of 10 alive], 180 % of control"
CS(=O)(=O)OCCCNCCCOS(C)(=O)=O,T/C,"[1]; dose: 60.0 mg/kg/injection, schedule: Q01DX009 (sc), vehicle: saline",139 % of control
same,T/C,"[1]; dose: 65.0 mg/kg/injection, schedule: Q04DX003 (ip), vehicle: saline",137 % of control
same,T/C,"[1]; dose: 108.0 mg/kg/injection, schedule: Q04DX003 (ip), vehicle: saline",131 % of control
same,survivor count,"[2]; dose: 120.0 mg/kg/injection, schedule: Q01DX009 (sc), vehicle: saline",7 of 10
CCCCN(CCCC)P(=O)(N1CC1)N1CC1,T/C,[1]; [6],135 % of control [9 of 10 alive]
same,T/C,[1]; [11],140 % of control
same,survivor count,"[2]; dose: 1.08 mg/kg/injection, schedule: Q01DX Z (sc), vehicle: saline",6 of 10
same,survivor count,[2]; [10],6 of 10
same,survivor count,[2]; [4],6 of 10
same,survivor count,[2]; [5],6 of 10
CC[C@]1(O)C[C@H]2CN(CCc3c([nH]c4ccccc34)[C@@](C(=O)OC)(c3cc4c(cc3OC)N(C=O)[C@H]3[C@@](O)(C(=O)OC)[C@H](OC(C)=O)[C@]5(CC)C=CCN6CC[C@]43[C@@H]65)C2)C1,T/C,"[1]; dose: 1.0 mg/kg/injection, schedule: Q01DX009 (sc), vehicle: water, evaluated on day 19",125 % of control
same,T/C,"[1]; dose: 4.0 mg/kg/injection, schedule: Q01DX001 (sc), vehicle: water, evaluated on day 7",140 % of control
same,T/C,"[1]; dose: 4.0 mg/kg/injection, schedule: Q01DX001 (sc), vehicle: water, evaluated on day 24",144 % of control
same,T/C,"[2]; dose: 0.25 mg/kg/injection, schedule: Q01DX009 (sc), vehicle: water, evaluated on day 7",107 and 109 % of control
same,T/C,"[2]; dose: 0.25 mg/kg/injection, schedule: Q01DX009 (sc), vehicle: water, evaluated on day 18",105 % of control
same,T/C,"[2]; dose: 0.25 mg/kg/injection, schedule: Q01DX009 (sc), vehicle: water, evaluated on day 19",112 % of control
same,T/C,"[2]; dose: 0.5 mg/kg/injection, schedule: Q01DX009 (sc), vehicle: water, evaluated on day 7",115 and 122 % of control
same,T/C,"[2]; dose: 0.5 mg/kg/injection, schedule: Q01DX009 (sc), vehicle: water, evaluated on day 18",122 % of control
same,T/C,"[2]; dose: 0.5 mg/kg/injection, schedule: Q01DX009 (sc), vehicle: water, evaluated on day 19",118 % of control
same,T/C,"[2]; dose: 1.0 mg/kg/injection, schedule: Q01DX009 (sc), vehicle: water, evaluated on day 7",100 and 119 % of control
same,T/C,"[2]; dose: 1.0 mg/kg/injection, schedule: Q01DX009 (sc), vehicle: water, evaluated on day 18",94 % of control [6 of 8 alive]
same,T/C,"[2]; dose: 2.0 mg/kg/injection, schedule: Q01DX009 (sc), vehicle: water, evaluated on day 7",81 and 111 % of control
same,T/C,"[2]; dose: 2.0 mg/kg/injection, schedule: Q01DX009 (sc), vehicle: water, evaluated on day 19",112 % of control
same,survivor count,"[2]; dose: 2.0 mg/kg/injection, schedule: Q01DX009 (sc), vehicle: water",2 of 8
same,T/C,"[2]; dose: 4.0 mg/kg/injection, schedule: Q01DX009 (sc), vehicle: water, evaluated on day 7",78 and 111 % of control
same,T/C,"[2]; dose: 4.0 mg/kg/injection, schedule: Q01DX009 (sc), vehicle: water, evaluated on day 19",112 % of control
same,survivor count,"[2]; dose: 4.0 mg/kg/injection, schedule: Q01DX009 (sc), vehicle: water",1 of 8
same,T/C,"[2]; dose: 8.0 mg/kg/injection, schedule: Q01DX009 (sc), vehicle: water, evaluated on day 7",66 and 104 % of control
same,T/C,"[2]; dose: 8.0 mg/kg/injection, schedule: Q01DX009 (sc), vehicle: water, evaluated on day 19",106 % of control [7 of 8 alive]
same,survivor count,"[2]; dose: 8.0 mg/kg/injection, schedule: Q01DX009 (sc), vehicle: water",0 of 8
C[C@H](N)C(=O)N[C@@H]1[C@H]2C(=C(O)C[C@@H](O)[C@@H]2O)C(=O)O[C@@H]1C,T/C,"[1]; dose: 648.0 mg/kg/injection, schedule: Q01DX Z (sc), vehicle: saline",137 % of control [9 of 10 alive]
same,T/C,"[1]; dose: 833.0 mg/kg/injection, schedule: Q01DX Z (sc), vehicle: saline",130 % of control
same,T/C,"[1]; dose: 833.0 mg/kg/injection, schedule: Q#A X Z (sc), vehicle: saline",138 % of control
same,T/C,"[1]; dose: 1388.0 mg/kg/injection, schedule: Q01DX Z (sc), vehicle: saline",130 % of control
same,survivor count,"[2]; dose: 233.0 mg/kg/injection, schedule: Q01DX Z (sc), vehicle: saline",3 of 10
same,survivor count,"[2]; dose: 1080.0 mg/kg/injection, schedule: Q01DX Z (sc), vehicle: saline",5 of 10
CSc1ncnc2c1ncn2C1OC(CO)C(O)C1O (stereo unspecified),T/C,"[1]; dose: 65.0 mg/kg/injection, schedule: Q01DX Z (sc), vehicle: water",144 % of control
same,T/C,"[1]; dose: 108.0 mg/kg/injection, schedule: Q01DX Z (sc), vehicle: water",144 % of control
same,survivor count,"[2]; dose: 500.0 mg/kg/injection, schedule: Q01DX001 (sc), vehicle: water",3 of 8
S=P(N1CCOCC1)(N1CC1)N1CC1,T/C,[1]; [6],132 and 145 % of control
same,T/C,[1]; [11],148 % of control
same,T/C,"[1]; dose: 39.0 mg/kg/injection, schedule: Q## X Z (sc), vehicle: saline",130 % of control
same,T/C,[1]; [7],128 and 145 % of control
same,T/C,"[1]; dose: 108.0 mg/kg/injection, schedule: Q01DX001 (sc), vehicle: saline",130 % of control [7 of 8 alive]
same,T/C,"[1]; dose: 108.0 mg/kg/injection, schedule: Q01DX Z (sc), vehicle: saline",130 % of control
same,T/C,"[1]; dose: 108.0 mg/kg/injection, schedule: Q## X Z (sc), vehicle: saline",125 % of control
same,T/C,"[1]; dose: 180.0 mg/kg/injection, schedule: Q01DX001 (sc), vehicle: saline",130 % of control
same,T/C,"[1]; dose: 180.0 mg/kg/injection, schedule: Q01DX Z (sc), vehicle: saline",130 % of control
same,T/C,[1]; [8],125 % of control
same,T/C,[1]; [9],130 % of control [7 of 8 alive]
same,T/C,"[1]; dose: 300.0 mg/kg/injection, schedule: Q## X Z (sc), vehicle: saline",130 % of control
same,survivor count,[2]; [6],5 of 8

# Source: PubChem BioAssay AID250 (DTP/NCI, 2004)
